Patent US20230043198A1, “MICROBIOTA METABOLITES THAT SHAPE HOST PHYSIOLOGY” (Yale University, priority 2018, published 2023)

Assay: Phenethylamine in tissues of colonized mice by ESI-QQQ-MS/MS
Assay type: in vivo, C57Bl/6 mice

SMILES: NNCCc1ccccc1 [phenelzine]
- phenethylamine in the colon, serum and brains (M. morganii monocolonized mice treated with phenelzine): elevated levels
- colonic phenethylamine (germ-free mice and mice colonized with B. theta, treated with MAOI): undetectable
